Source: US20170129957A1 (BERGENBIO ASA, published 2017)
These are yes or no findings as the source states them, for the method shown. Some binding calls cover weakened binding; strength is not graded here. For some assays here: Tags and fused reporters may be left off the sequences shown.

By UniProt entry, the sequences of proteins in these tests, tags left out. Where a name states a change or a piece, a line headed by the entry shows the natural chain unless it says otherwise.
UniProt P30530: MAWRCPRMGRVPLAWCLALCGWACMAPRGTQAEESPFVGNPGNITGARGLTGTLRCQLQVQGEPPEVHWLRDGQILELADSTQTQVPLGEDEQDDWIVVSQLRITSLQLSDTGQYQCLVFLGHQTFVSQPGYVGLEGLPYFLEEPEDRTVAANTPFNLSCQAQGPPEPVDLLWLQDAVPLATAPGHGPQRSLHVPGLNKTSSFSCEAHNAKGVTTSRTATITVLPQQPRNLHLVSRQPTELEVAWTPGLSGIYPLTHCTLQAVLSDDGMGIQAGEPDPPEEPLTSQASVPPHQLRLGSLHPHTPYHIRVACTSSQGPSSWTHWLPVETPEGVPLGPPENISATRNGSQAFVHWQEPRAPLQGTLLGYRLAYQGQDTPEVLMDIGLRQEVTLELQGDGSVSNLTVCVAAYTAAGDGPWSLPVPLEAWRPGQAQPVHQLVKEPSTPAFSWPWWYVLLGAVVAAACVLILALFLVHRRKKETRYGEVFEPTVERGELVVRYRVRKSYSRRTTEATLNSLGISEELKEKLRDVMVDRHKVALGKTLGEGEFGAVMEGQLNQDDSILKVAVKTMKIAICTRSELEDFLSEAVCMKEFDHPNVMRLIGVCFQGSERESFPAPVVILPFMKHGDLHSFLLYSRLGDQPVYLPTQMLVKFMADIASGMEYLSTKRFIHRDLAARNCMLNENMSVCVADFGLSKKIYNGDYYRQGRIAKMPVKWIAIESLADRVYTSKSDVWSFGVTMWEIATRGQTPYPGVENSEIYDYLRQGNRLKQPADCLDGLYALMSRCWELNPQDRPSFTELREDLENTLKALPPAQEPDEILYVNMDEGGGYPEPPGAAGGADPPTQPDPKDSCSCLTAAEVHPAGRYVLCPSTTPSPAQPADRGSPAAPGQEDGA

Assays:
[1] = target: recombinant human Axl-Fc chimera (R&D Systems, Cat. no. 154-AL) (human) (UniProt P30530); assay: SPR two-sample injection (Biacore 3000), rhAxl-Fc on CM5 first saturated with MAb 1H12 (270 µg/mL), then rmGas6 at 25 µg/mL
[2] = target: recombinant human Axl-Fc chimera (R&D Systems, Cat. no. 154-AL) (human) (UniProt P30530); assay: SPR (Biacore 3000), rhAxl-Fc immobilised on CM5 chip, rmGas6 at 10 µg/mL
[3] = target: T1, recombinant human Tyro3/Dtk-Fc chimera (R&D Systems, Cat. no. 859-DK) (human) (UniProt Q06418); assay: SPR (Biacore 3000), rhTyro3/Dtk-Fc immobilised on CM5 chip, rmGas6 at 10 µg/mL
T1 sequence: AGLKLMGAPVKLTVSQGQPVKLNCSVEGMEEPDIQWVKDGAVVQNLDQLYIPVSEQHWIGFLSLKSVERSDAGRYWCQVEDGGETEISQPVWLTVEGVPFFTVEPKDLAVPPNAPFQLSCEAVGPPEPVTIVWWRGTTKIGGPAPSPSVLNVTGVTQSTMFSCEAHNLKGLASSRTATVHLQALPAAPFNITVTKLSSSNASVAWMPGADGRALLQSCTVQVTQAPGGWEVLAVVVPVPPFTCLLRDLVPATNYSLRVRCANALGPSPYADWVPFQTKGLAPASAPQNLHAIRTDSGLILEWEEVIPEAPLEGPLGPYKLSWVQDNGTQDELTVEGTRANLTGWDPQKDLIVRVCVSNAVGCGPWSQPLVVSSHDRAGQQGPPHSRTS

[4] = target: T1, recombinant human Tyro3/Dtk-Fc chimera (R&D Systems, Cat. no. 859-DK) (human); assay: SPR (Biacore 3000), rhTyro3/Dtk-Fc immobilised on CM5 at 1,429.0 RU, rmGas6 injected at 10 µg/mL, 25 °C [lower panel rmGas6]
[5] = target: recombinant human Axl-Fc chimera (R&D Systems, Cat. no. 154-AL) (human) (UniProt P30530); assay: SPR (Biacore 3000), rhAxl-Fc immobilised on CM5 at 1,308.0 RU, rmGas6 injected at 10 µg/mL, 25 °C [lower panel rmGas6]

Measured: binding

B1: recombinant mouse Gas6 (R&D Systems, Cat. no. 986-GS/CF) (ligand, UniProt Q61592 46-674, looked up)
chain: AYQVFEEAKQGHLERECVEEVCSKEEAREVFENDPETEYFYPRYQECMRKYGRPEEKNPDFAKCVQNLPDQCTPNPCDKKGTHICQDLMGNFFCVCTDGWGGRLCDKDVNECVQKNGGCSQVCHNKPGSFQCACHSGFSLASDGQTCQDIDECTDSDTCGDARCKNLPGSYSCLCDEGYTYSSKEKTCQDVDECQQDRCEQTCVNSPGSYTCHCDGRGGLKLSPDMDTCEDILPCVPFSMAKSVKSLYLGRMFSGTPVIRLRFKRLQPTRLLAEFDFRTFDPEGVLFFAGGRSDSTWIVLGLRAGRLELQLRYNGVGRITSSGPTINHGMWQTISVEELERNLVIKVNKDAVMKIAVAGELFQLERGLYHLNLTVGGIPFKESELVQPINPRLDGCMRSWNWLNGEDSAIQETVKANTKMQCFSVTERGSFFPGNGFATYRLNYTRTSLDVGTETTWEVKVVARIRPATDTGVLLALVGDDDVVPISVALVDYHSTKKLKKQLVVLAVEDVALALMEIKVCDSQEHTVTVSLREGEATLEVDGTKGQSEVSTAQLQERLDTLKTHLQGSVHTYVGGLPEVSVISAPVTAFYRGCMTLEVNGKILDLDTASYKHSDITSHSCPPVEHATP
binds: [1] | [2] | [3] | [4] | [5]
